# Measured values as given in the supplement of paper PMC8728848.
# Some of the results follow.
# B1: GS7807I-bvu-563-22-563 (Bacteroides vulgatus) (protein)
# chain: IFSSCTDDFEKLNTSNIQVDPADLPFAAQCTEPMTYCYPPQQNMFQFWTNLTIDLYGGYFMTPNGNFTNGDMGENRGHSGGMYENYYLHIFNNTRRIIAQCDASGERGLSGVMRIVQAYGTLMTTDAYGPIPYSSILSGENEVYFEFDSQKDLYKAMLEDLSTAITDISAMGADEIAKLKSFDCWCNGDKDLWVKIANTMKLRMALRLSKRETEAGNAGMNLKAIATEAAQNTLATVNKDILIDKSLENEMWLMFNWGDCGFNANLVTIMSGTKDPRQPLYMTLNTGDIKNEAGTTTVAANSQYLGIRFASGLPAKPNSWGNFSGWIQGNNGSSYSMPLPIMKAAEAYFLLAEAKLRWDIGSESVKNLYENGIRVSMTNELAYRGAYAGIKEYPEGAVDAYINGTSTQIDYTDPIKAELSTPAVNKLSVKWDESASNEEKLERIITQKWLALFPLSTEGWAEQRRTGYPRFFPAFVNESNGAVNTEEGVRRVIYSSQAYDANAKGVEGGIKLLDEENSSKFGISGDKGGTHLWWDNADKGNF
# Columns and labels:
# Assay in all cases: glycan array binding signal (z-score within array); higher = stronger binding
# Conditions in all cases: glycan notation: IUPAC condensed, linker removed
# [1] = target: Gal(b1-4)GlcNAc(b1-3)Gal(b1-4)GlcNAc(b1-2)[Gal(b1-4)GlcNAc(b1-3)Gal(b1-4)GlcNAc(b1-6)]Man(a1-6)[Gal(b1-4)GlcNAc(b1-3)Gal(b1-4)GlcNAc(b1-2)Man(a1-3)]Man(b1-4)GlcNAc(b1-4)GlcNAc
# Procedure, shortened: (§1)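 From the Consortium for Functional Glycomics database, 3228 arrays were curated, keeping only those whose protein sequence was available. Binding is given as a within-array Z-score averaged across arrays sharing a protein sequence and across linkers. Negative Z-scores can be read as non-binding.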
# [2] = target: Gal(b1-4)GlcNAc(b1-3)Gal(b1-4)GlcNAc(b1-2)[Gal(b1-4)GlcNAc(b1-3)Gal(b1-4)GlcNAc(b1-6)]Man(a1-6)[Gal(b1-4)GlcNAc(b1-3)Gal(b1-4)GlcNAc(b1-2)Man(a1-3)]Man(b1-4)GlcNAc(b1-4)[Fuc(a1-6)]GlcNAc
# Procedure, shortened: as §1
# [3] = target: Gal(b1-4)GlcNAc(b1-3)Gal(b1-4)GlcNAc(b1-3)Gal(b1-4)GlcNAc
# Procedure, shortened: as §1
# [4] = target: Gal(b1-4)GlcNAc(b1-3)Gal(b1-4)GlcNAc(b1-3)Gal(b1-4)GlcNAc(b1-2)Man(a1-3)[Gal(b1-4)GlcNAc(b1-3)Gal(b1-4)GlcNAc(b1-3)Gal(b1-4)GlcNAc(b1-2)Man(a1-6)]Man(b1-4)GlcNAc(b1-4)GlcNAc
# Procedure, shortened: as §1
# [5] = target: Gal(b1-4)GlcNAc(b1-3)Gal(b1-4)GlcNAc(b1-3)Gal(b1-4)GlcNAc(b1-2)Man(a1-3)[Gal(b1-4)GlcNAc(b1-3)Gal(b1-4)GlcNAc(b1-3)Gal(b1-4)GlcNAc(b1-2)Man(a1-6)]Man(b1-4)GlcNAc(b1-4)[Fuc(a1-6)]GlcNAc
# Procedure, shortened: as §1
# [6] = target: Gal(b1-4)GlcNAc(b1-3)Gal(b1-4)GlcNAc(b1-3)Gal(b1-4)GlcNAc(b1-2)[Gal(b1-4)GlcNAc(b1-3)Gal(b1-4)GlcNAc(b1-3)Gal(b1-4)GlcNAc(b1-6)]Man(a1-6)[Gal(b1-4)GlcNAc(b1-3)Gal(b1-4)GlcNAc(b1-3)Gal(b1-4)GlcNAc(b1-2)Man(a1-3)]Man(b1-4)GlcNAc(b1-4)[Fuc(a1-6)]GlcNAc
# Procedure, shortened: as §1
# [7] = target: Gal(b1-4)GlcNAc(b1-3)Gal(b1-4)GlcNAc(b1-3)Gal(b1-4)GlcNAc(b1-3)Gal(b1-4)GlcNAc(b1-2)Man(a1-3)[Gal(b1-4)GlcNAc(b1-3)Gal(b1-4)GlcNAc(b1-3)Gal(b1-4)GlcNAc(b1-3)Gal(b1-4)GlcNAc(b1-2)Man(a1-6)]Man(b1-4)GlcNAc(b1-4)GlcNAc
# Procedure, shortened: as §1
# [8] = target: Gal(b1-4)GlcNAc(b1-3)Gal(b1-4)GlcNAc(b1-3)Gal(b1-4)GlcNAc(b1-3)Gal(b1-4)GlcNAc(b1-2)Man(a1-3)[Gal(b1-4)GlcNAc(b1-3)Gal(b1-4)GlcNAc(b1-3)Gal(b1-4)GlcNAc(b1-3)Gal(b1-4)GlcNAc(b1-2)Man(a1-6)]Man(b1-4)GlcNAc(b1-4)[Fuc(a1-6)]GlcNAc
# Procedure, shortened: as §1
# [9] = target: Gal(b1-4)GlcNAc(b1-3)Gal(b1-4)GlcNAc(b1-3)Gal(b1-4)GlcNAc(b1-3)Gal(b1-4)GlcNAc(b1-2)[Gal(b1-4)GlcNAc(b1-3)Gal(b1-4)GlcNAc(b1-3)Gal(b1-4)GlcNAc(b1-3)Gal(b1-4)GlcNAc(b1-6)]Man(a1-6)[Gal(b1-4)GlcNAc(b1-3)Gal(b1-4)GlcNAc(b1-3)Gal(b1-4)GlcNAc(b1-3)Gal(b1-4)GlcNAc(b1-2)Man(a1-3)]Man(b1-4)GlcNAc(b1-4)[Fuc(a1-6)]GlcNAc
# Procedure, shortened: as §1
# [10] = target: Gal(b1-4)GlcNAc(b1-3)Gal(b1-4)GlcNAc(b1-3)Gal(b1-4)GlcNAc(b1-3)Gal(b1-4)GlcNAc(b1-3)Gal(b1-4)GlcNAc(b1-2)Man(a1-3)[Gal(b1-4)GlcNAc(b1-3)Gal(b1-4)GlcNAc(b1-3)Gal(b1-4)GlcNAc(b1-3)Gal(b1-4)GlcNAc(b1-3)Gal(b1-4)GlcNAc(b1-2)Man(a1-6)]Man(b1-4)GlcNAc(b1-4)GlcNAc
# Procedure, shortened: as §1
# [11] = target: Gal(b1-4)GlcNAc(b1-3)Gal(b1-4)GlcNAc(b1-3)Gal(b1-4)GlcNAc(b1-3)Gal(b1-4)GlcNAc(b1-3)Gal(b1-4)GlcNAc(b1-2)Man(a1-3)[Gal(b1-4)GlcNAc(b1-3)Gal(b1-4)GlcNAc(b1-3)Gal(b1-4)GlcNAc(b1-3)Gal(b1-4)GlcNAc(b1-3)Gal(b1-4)GlcNAc(b1-2)Man(a1-6)]Man(b1-4)GlcNAc(b1-4)[Fuc(a1-6)]GlcNAc
# Procedure, shortened: as §1
# [12] = target: Gal(b1-4)GlcNAc(b1-3)Gal(b1-4)GlcNAc(b1-3)Gal(b1-4)GlcNAc(b1-3)Gal(b1-4)GlcNAc(b1-3)Gal(b1-4)GlcNAc(b1-2)[Gal(b1-4)GlcNAc(b1-3)Gal(b1-4)GlcNAc(b1-3)Gal(b1-4)GlcNAc(b1-3)Gal(b1-4)GlcNAc(b1-3)Gal(b1-4)GlcNAc(b1-6)]Man(a1-6)[Gal(b1-4)GlcNAc(b1-3)Gal(b1-4)GlcNAc(b1-3)Gal(b1-4)GlcNAc(b1-3)Gal(b1-4)GlcNAc(b1-3)Gal(b1-4)GlcNAc(b1-2)Man(a1-3)]Man(b1-4)GlcNAc(b1-4)[Fuc(a1-6)]GlcNAc
# Procedure, shortened: as §1
# [13] = target: Gal(b1-4)GlcNAc(b1-3)Gal(b1-4)GlcNAc(b1-3)Gal(b1-4)GlcNAc(b1-3)Gal(b1-4)GlcNAc(b1-3)Gal(b1-4)GlcNAc(b1-3)Gal(b1-4)GlcNAc(b1-2)Man(a1-3)[Gal(b1-4)GlcNAc(b1-3)Gal(b1-4)GlcNAc(b1-3)Gal(b1-4)GlcNAc(b1-3)Gal(b1-4)GlcNAc(b1-3)Gal(b1-4)GlcNAc(b1-3)Gal(b1-4)GlcNAc(b1-2)Man(a1-6)]Man(b1-4)GlcNAc(b1-4)GlcNAc
# Procedure, shortened: as §1
# [14] = target: Gal(b1-4)GlcNAc(b1-3)Gal(b1-4)GlcNAc(b1-3)GalNAc
# Procedure, shortened: as §1
# [15] = target: Gal(b1-4)GlcNAc(b1-3)Gal(b1-4)GlcNAc(b1-3)[Gal(b1-4)GlcNAc(b1-3)Gal(b1-4)GlcNAc(b1-6)]GalNAc
# Procedure, shortened: as §1
# [16] = target: Gal(b1-4)GlcNAc(b1-3)Gal(b1-4)GlcNAc(b1-6)[Gal(b1-3)]GalNAc
# Procedure, shortened: as §1
# [17] = target: Gal(b1-4)GlcNAc(b1-3)Gal(b1-4)[Fuc(a1-3)]GlcNAc(b1-3)Gal(b1-4)[Fuc(a1-3)]GlcNAc
# Procedure, shortened: as §1
# [18] = target: Gal(b1-4)GlcNAc(b1-3)GalNAc
# Procedure, shortened: as §1
# [19] = target: Gal(b1-4)GlcNAc(b1-3)[Fuc(a1-3)GlcNAc(b1-6)]Gal(b1-4)Glc
# Procedure, shortened: as §1
# [20] = target: Gal(b1-4)GlcNAc(b1-3)[Gal(b1-4)GlcNAc(b1-6)]Gal(b1-4)GlcNAc
# Procedure, shortened: as §1
# [21] = target: Gal(b1-4)GlcNAc(b1-3)[GlcNAc(b1-6)]Gal(b1-4)GlcNAc
# Procedure, shortened: as §1
# [22] = target: Gal(b1-4)GlcNAc(b1-6)Gal(b1-4)GlcNAc
# Procedure, shortened: as §1
# [23] = target: Gal(b1-4)GlcNAc(b1-6)GalNAc
# Procedure, shortened: as §1
# [24] = target: Gal(b1-4)GlcNAc(b1-6)[Gal(b1-3)]GalNAc
# Procedure, shortened: as §1
# [25] = target: Gal(b1-4)GlcNAc(b1-6)[Gal(b1-4)GlcNAc(b1-3)]GalNAc
# Procedure, shortened: as §1
# [26] = target: Gal(b1-4)GlcNAc6P
# Procedure, shortened: as §1
# [27] = target: Gal(b1-6)Gal
# Procedure, shortened: as §1
# [28] = target: Gal3S(b1-3)GalNAc
# Procedure, shortened: as §1
# [29] = target: Gal3S(b1-3)GlcNAc
# Procedure, shortened: as §1
# [30] = target: Gal3S(b1-3)[Fuc(a1-4)]GlcNAc
# Procedure, shortened: as §1
binder,measurement,setting,value
B1,glycan array binding signal (z-score),[1],1.71
same,glycan array binding signal (z-score),[2],2.61
same,glycan array binding signal (z-score),[3],-0.304
same,glycan array binding signal (z-score),[4],2.24
same,glycan array binding signal (z-score),[5],1.26
same,glycan array binding signal (z-score),[6],-0.035
same,glycan array binding signal (z-score),[7],0.142
same,glycan array binding signal (z-score),[8],3.21
same,glycan array binding signal (z-score),[9],1.01
same,glycan array binding signal (z-score),[10],1.03
same,glycan array binding signal (z-score),[11],1.92
same,glycan array binding signal (z-score),[12],0.924
same,glycan array binding signal (z-score),[13],1.29
same,glycan array binding signal (z-score),[14],-0.223
same,glycan array binding signal (z-score),[15],1.22
same,glycan array binding signal (z-score),[16],-0.574
same,glycan array binding signal (z-score),[17],-0.131
same,glycan array binding signal (z-score),[18],-0.571
same,glycan array binding signal (z-score),[19],-0.847
same,glycan array binding signal (z-score),[20],-1.34
same,glycan array binding signal (z-score),[21],0.018
same,glycan array binding signal (z-score),[22],-0.242
same,glycan array binding signal (z-score),[23],-0.309
same,glycan array binding signal (z-score),[24],0.439
same,glycan array binding signal (z-score),[25],0.322
same,glycan array binding signal (z-score),[26],0.178
same,glycan array binding signal (z-score),[27],-0.287
same,glycan array binding signal (z-score),[28],-0.03
same,glycan array binding signal (z-score),[29],1.03
same,glycan array binding signal (z-score),[30],-0.195

# Not a retest: entries from further up.
binder,measurement,setting,value
B1,glycan array binding signal (z-score),[22],-0.242
same,glycan array binding signal (z-score),[23],-0.309
same,glycan array binding signal (z-score),[24],0.439
same,glycan array binding signal (z-score),[25],0.322
same,glycan array binding signal (z-score),[26],0.178
same,glycan array binding signal (z-score),[27],-0.287
